Results published in publication PMC12119004.

Target: T1, His-tagged MIC25 (UniProt Q9BRQ6)
T1 sequence: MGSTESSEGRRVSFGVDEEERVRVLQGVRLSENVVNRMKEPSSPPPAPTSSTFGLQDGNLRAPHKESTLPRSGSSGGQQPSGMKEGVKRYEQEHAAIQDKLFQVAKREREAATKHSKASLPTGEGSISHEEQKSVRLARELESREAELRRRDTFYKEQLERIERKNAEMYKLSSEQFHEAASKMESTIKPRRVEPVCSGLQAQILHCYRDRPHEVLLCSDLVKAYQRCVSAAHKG
Assay: affinity purification with mass spectrometry; His-tagged MIC25 as bait on Ni-NTA beads; pull-down samples digested in gel and compared (MIC25 background excluded) by mass spectrometry; sample pulled down not stated; only the target purified

Substance: CHCH3
- binding: binds

Results are given in words; binding and its absence hold for the method and conditions named. In cells and extracts the contact can be indirect. Here binding means that the protein was enriched with, or labelled near, the bait; the list need not be complete. Sequences can lack the tags named with a protein.
